Laboratory results from PMC7295574.

Target: T1, TMEM95 entire ectodomain, monomeric biotinylated bait (mouse) (UniProt P0DJF3)
T1 sequence (chain, biotinylated (site not stated)): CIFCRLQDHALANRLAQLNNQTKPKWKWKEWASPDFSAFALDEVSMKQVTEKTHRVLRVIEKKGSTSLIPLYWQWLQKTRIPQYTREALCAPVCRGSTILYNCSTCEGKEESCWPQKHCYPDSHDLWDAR
Assay: AVEXIS (avidity-based extracellular interaction screening); biotinylated monomeric baits, dialyzed against HBS, immobilised on streptavidin-coated 96-well plates; pentameric beta-lactamase-tagged preys incubated one hour; washed with HBS/0.1% Tween-20; nitrocefin hydrolysis read as absorbance at 485 nm

## JUNO entire ectodomain, pentameric beta-lactamase-tagged prey (mouse) (domain or fragment)
  binding: no binding

These are yes or no findings as the source states them, for the method shown.
